Results are given in words; binding and its absence hold for the method and conditions named. A result given as binding can be weak or reduced; the word gives no strength.
Legend:
Test in all cases: SEC; 100 µM SepRS variants incubated with 400 µM SepCysE variants; Superdex 200 10/300 GL; 20 mM HEPES-NaOH pH 7.5, 300 mM NaCl, 10% glycerol; both purified
[1] = target: SepRS deletion mutant of loop 3 (494–498 ALVSN) (Methanocaldococcus jannaschii) (UniProt Q59054)
[2] = target: SepRS deletion mutant of loop 2 (411–414 FNGE) (Methanocaldococcus jannaschii) (UniProt Q59054)
[3] = target: SepRS deletion mutant of loop 1 (376–380 ILDEF) (Methanocaldococcus jannaschii) (UniProt Q59054)

Sequences of proteins named here, by UniProt entry; tags and fusion partners are left off. A change or cut given only in a name is not applied to a line headed by its entry.
UniProt Q59054: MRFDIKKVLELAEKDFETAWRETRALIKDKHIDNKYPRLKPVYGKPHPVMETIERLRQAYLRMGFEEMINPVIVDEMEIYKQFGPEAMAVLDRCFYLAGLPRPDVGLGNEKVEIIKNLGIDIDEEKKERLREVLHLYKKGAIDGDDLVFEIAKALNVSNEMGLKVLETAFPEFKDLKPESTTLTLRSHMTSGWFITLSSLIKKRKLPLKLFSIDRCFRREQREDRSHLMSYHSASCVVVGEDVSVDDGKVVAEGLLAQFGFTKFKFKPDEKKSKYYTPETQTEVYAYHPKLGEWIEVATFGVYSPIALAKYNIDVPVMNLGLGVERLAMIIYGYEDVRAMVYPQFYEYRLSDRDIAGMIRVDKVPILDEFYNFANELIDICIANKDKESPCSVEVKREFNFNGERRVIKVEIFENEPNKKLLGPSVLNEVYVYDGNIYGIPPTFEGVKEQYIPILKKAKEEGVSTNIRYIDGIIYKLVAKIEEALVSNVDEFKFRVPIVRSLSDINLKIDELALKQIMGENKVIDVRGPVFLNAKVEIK

Measured: binding

B1: SepCysE (SepRS/SepCysS pathway enhancer), Methanocaldococcus jannaschii (natural protein)
chain: MRVEYSKDLIRKGISTISQLKKAKIRVEKDDKKISYKDAKPGKIDVNEFKKAIYLLIEADDFLYKKAPKHELNEEEAKEFCKLIIKCQEHLNKILANFGFEFEEKEIDEGALYIVSNKKLFKKLKNKNPNLKVVCTEGMLDIEDMRAIGVPEKALEGLKKKVEIARKNVERFIEKYKPEKIFVVVEDDKDELLYLRAKNLYNAEKLDADEILD
notes: SepCysE of Methanocaldococcus jannaschii; wild type
binds: all assays above

— paper PMC5688128, “Structural basis for tRNA-dependent cysteine biosynthesis” (Nature Communications, 2017)
